# Test results from patent US20180099931A1 (AbbVie S.à.r.l., priority 2016, published 2018).
# Sequences of proteins named here, by UniProt entry; tags and fusion partners are left off. A line that says so, or that is headed by a name, gives the form on record, which may keep a tag or linker.
# UniProt P13569, with tags, fused parts or gaps DEL508-508: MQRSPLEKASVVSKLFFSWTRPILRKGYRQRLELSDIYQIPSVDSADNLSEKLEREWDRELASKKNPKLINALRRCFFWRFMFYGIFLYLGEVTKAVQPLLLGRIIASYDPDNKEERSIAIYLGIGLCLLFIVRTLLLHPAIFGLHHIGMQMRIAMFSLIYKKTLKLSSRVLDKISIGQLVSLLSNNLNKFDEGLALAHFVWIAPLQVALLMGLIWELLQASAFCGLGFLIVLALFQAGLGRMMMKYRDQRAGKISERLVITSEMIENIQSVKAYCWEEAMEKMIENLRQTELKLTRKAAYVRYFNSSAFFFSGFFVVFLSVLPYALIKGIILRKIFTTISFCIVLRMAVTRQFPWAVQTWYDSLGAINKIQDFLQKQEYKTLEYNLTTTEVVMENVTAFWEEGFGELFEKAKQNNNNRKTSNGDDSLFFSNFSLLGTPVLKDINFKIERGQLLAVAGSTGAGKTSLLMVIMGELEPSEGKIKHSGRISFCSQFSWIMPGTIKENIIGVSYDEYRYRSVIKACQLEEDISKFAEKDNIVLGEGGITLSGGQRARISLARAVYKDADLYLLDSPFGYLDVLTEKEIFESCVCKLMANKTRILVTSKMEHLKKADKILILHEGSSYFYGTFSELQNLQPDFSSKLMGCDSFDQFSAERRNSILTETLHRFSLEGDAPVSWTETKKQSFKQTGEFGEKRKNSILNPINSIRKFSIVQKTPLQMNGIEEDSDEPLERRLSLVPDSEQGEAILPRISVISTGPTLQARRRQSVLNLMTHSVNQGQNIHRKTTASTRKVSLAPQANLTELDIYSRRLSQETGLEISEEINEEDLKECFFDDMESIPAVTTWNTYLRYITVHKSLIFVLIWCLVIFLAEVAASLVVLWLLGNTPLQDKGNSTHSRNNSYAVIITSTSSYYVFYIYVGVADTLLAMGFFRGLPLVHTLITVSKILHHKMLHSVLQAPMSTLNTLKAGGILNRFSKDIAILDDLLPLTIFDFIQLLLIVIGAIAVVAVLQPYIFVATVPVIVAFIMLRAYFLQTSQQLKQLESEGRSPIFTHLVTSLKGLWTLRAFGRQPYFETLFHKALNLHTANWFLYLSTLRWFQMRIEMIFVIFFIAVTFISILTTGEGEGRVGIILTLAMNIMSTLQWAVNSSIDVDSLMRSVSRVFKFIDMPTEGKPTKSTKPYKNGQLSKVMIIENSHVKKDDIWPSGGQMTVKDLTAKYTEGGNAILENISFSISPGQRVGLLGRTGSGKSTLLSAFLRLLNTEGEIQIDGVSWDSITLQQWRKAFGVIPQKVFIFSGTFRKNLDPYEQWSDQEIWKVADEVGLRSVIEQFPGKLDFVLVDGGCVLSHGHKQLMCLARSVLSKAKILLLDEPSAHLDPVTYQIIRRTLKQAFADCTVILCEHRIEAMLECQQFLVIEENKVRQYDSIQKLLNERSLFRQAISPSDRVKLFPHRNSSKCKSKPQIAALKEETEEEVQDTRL
# Read-outs that look alike come from different tables or passages of the source. The match of structure and compound is tentative.
# Molecular target: F508delCFTR (Homo sapiens, UniProt P13569, DEL508-508)
# Assay: Cell Surface Expression-Horse Radish Peroxidase (CSE-HRP) Assay;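 on Maximum % activity (with co-corrector): co-corrector and positive control are both the same reference corrector at 2 µM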
# Assay type: cell-based
structure (smiles),measurement,setting,value
CC(C)(CN[C@H]1[C@H](C(C)(C)C)[C@@H](C(=O)O)N(C(=O)C2CCCCC2)[C@H]1c1ccccc1)c1ccc(Cl)cc1,EC50,"read-out: EC50 (with co-corrector), with co-corrector (2 μM of 3-[(2R,4R)-4-({[1-(2,2-difluoro-1,3-benzodioxol-5-yl)cyclopropyl]carbonyl}amino)-7-methoxy-3,4-dihydro-2H-chromen-2-yl]benzoic acid)",1 to 10 µM
same,EC50,"read-out: EC50 (without co-corrector), test compound without co-corrector",1 to 10 µM
same,Maximum % activity (with co-corrector),"with co-corrector (2 μM of 3-[(2R,4R)-4-({[1-(2,2-difluoro-1,3-benzodioxol-5-yl)cyclopropyl]carbonyl}amino)-7-methoxy-3,4-dihydro-2H-chromen-2-yl]benzoic acid), maximum at any tested concentration, normalized to on-plate positive control",+++ (≥350)
